{
  "source": "PubChem BioAssay AID540276",
  "about": "(National Center for Advancing Translational Sciences (NCATS), 2011)",
  "note": "The campaign covered roughly 300,000 compounds. About 5,400 (1.8%) were called active. This list was built around the results that the source calls inconclusive (neither active nor inactive); the mix of calls is not that of the screen. Calls come from the whole dose curve; tested in HEK293 cells. A potency beside an inconclusive call is a rough fit, not a confirmed value. Potency is the fitted concentration of half-maximal effect.",
  "data": [
    {"assay": "qHTS for inhibitors of binding or entry into cells for Marburg Virus", "settings": "Marburg virus pseudotyped entry inhibition, cell reporter; series mostly up to 37.8 µM", "values": [
      {"molecule": "O=C(Cc1ccccc1)Oc1ccc([N+](=O)[O-])cc1", "Potency": "inactive"},
      {"molecule": "O=C(Nc1cc(C(F)(F)F)ccc1N1CCOCC1)c1cccs1", "Potency": "inconclusive: 11.2 µM [inhibitor, partial curve, poor fit]"},
      {"molecule": "CC(C)C(=O)Nc1ccc(-c2nc3cccnc3o2)cc1", "Potency": "inconclusive: 8.2 µM [inhibitor, partial curve, poor fit]"},
      {"molecule": "CC(C)(C)N(Cc1ccccc1)C(=O)CSc1nnc(CNc2ccc(F)cc2)o1", "Potency": "inconclusive: 13 µM [inhibitor, partial curve, poor fit]"},
      {"molecule": "CCCCc1n[nH]c2c1/C(=N/OCC)CC(C)(C)C2", "Potency": "inconclusive: 1 µM [activator, full curve, poor fit]"},
      {"molecule": "CC1CC(C)(C)CC2(C1)NC(=O)N(CC(=O)NC1CCCc3ccccc31)C2=O", "note": "(stereo not given)", "Potency": "inconclusive: 3.16 µM [inhibitor, single point]"},
      {"molecule": "NS(=O)(=O)c1ccc(NC(=O)CSc2nc3ccccc3n2-c2ccccc2)cc1", "Potency": "inconclusive: 35.5 µM [inhibitor, single point]"},
      {"molecule": "O=C(c1ccc(C(F)(F)F)cc1)N1CCC(=O)N(C(COCc2ccc(C(F)(F)F)cc2)Cc2ccccc2)CC1", "note": "(stereo not given)", "Potency": "inconclusive: 29.1 µM [inhibitor, single point]"},
      {"molecule": "COC(=O)c1ccc(-c2ccco2)n1Cc1nc(-c2ccc(OC)c(OC)c2)oc1C", "Potency": "inconclusive: 22.4 µM [inhibitor, partial curve, poor fit]"},
      {"molecule": "O=C(CCCN1C(=O)/C(=C\\c2cccs2)SC1=S)NNC(=O)c1ccncc1", "Potency": "inactive"},
      {"molecule": "Cc1ccc(-n2nnnc2C(Cl)(Cl)c2nnnn2-c2ccc(C)cc2)cc1", "Potency": "inconclusive: 29.1 µM [inhibitor, single point]"},
      {"molecule": "Cc1[nH]n2c(=O)cc(C(C)(C)C)nc2c1-c1ccccc1", "Potency": "inconclusive: 3.16 µM [inhibitor, full curve, poor fit]"},
      {"molecule": "COc1ccc(C=O)cc1Cn1c(C)cc(C)c(C#N)c1=O", "Potency": "inconclusive: 3.55 µM [inhibitor, partial curve, poor fit]"},
      {"molecule": "O=C(Nc1cccc(F)c1)c1ccc(-c2ccccc2)s1", "Potency": "inconclusive: 1.41 µM [activator, partial curve, poor fit]"},
      {"molecule": "COc1cc(Cl)cc2c1Sc1ccccc1/C2=C/CCN(C)C", "Potency": "inconclusive: 22.4 µM [inhibitor, single point]"},
      {"molecule": "O=C(CCC(=O)N1CCN(S(=O)(=O)c2cccc(F)c2)CC1)c1cccs1", "Potency": "inconclusive: 0.708 µM [activator, single point]"},
      {"molecule": "O=C(CCC1CCCN(C2C3CC4CC(C3)CC2C4)C1)NCc1ccc(F)c(F)c1", "note": "(stereo not given)", "Potency": "inconclusive: 2.51 µM [inhibitor, partial curve, poor fit]"},
      {"molecule": "NC12NC(=O)C3(O)C4C5CC(C6C5C3C61)C42", "note": "(stereo not given)", "Potency": "inactive"},
      {"molecule": "COc1ccc(OC)c(S(=O)(=O)NCc2csc(-c3ccccc3)n2)c1", "Potency": "inactive"},
      {"molecule": "O=C(O)c1cc(NN=C2c3ccccc3-c3ccccc32)ccc1Cl", "Potency": "inactive"},
      {"molecule": "Cc1cccc(NS(=O)(=O)c2ccc3c(c2)CCN3C(=O)C2CCC2)c1", "Potency": "inconclusive: 35.5 µM [inhibitor, single point]"},
      {"molecule": "CCOc1ccc(-n2c(=S)sc3c(=O)[nH]c(SCC(=O)C(C)(C)C)nc32)cc1", "Potency": "inconclusive: 35.5 µM [inhibitor, single point]"},
      {"molecule": "Cc1cc(=O)oc2cc(OCC(=O)c3ccccc3)ccc12", "Potency": "inconclusive: 35.5 µM [inhibitor, single point]"},
      {"molecule": "COc1ccc(Cc2nnc(NC(=O)C3CC(=O)N(CCc4ccc(F)cc4)C3)s2)cc1OC", "note": "(stereo not given)", "Potency": "inconclusive: 6.31 µM [inhibitor, single point]"},
      {"molecule": "O=C(/C=C/c1ccco1)NC(=S)Nc1cccc(-c2nc3ccccc3s2)c1", "Potency": "active: 3.55 µM"},
      {"molecule": "O=c1cc(CO)oc(CN2CCCC2)c1O", "Potency": "inconclusive: 14.6 µM [activator, single point]"},
      {"molecule": "COC(=O)C1=C(c2ccccc2)c2ccccc2S(=O)(=O)N1CC(=O)Nc1ccccc1Cl", "Potency": "inconclusive: 17.8 µM [inhibitor, single point]"},
      {"molecule": "COc1ccccc1C(=O)N(Cc1cccs1)C1CCS(=O)(=O)C1", "note": "(stereo not given)", "Potency": "inactive"},
      {"molecule": "COc1cccc2cc(C(=O)NNC(=O)c3ccc(Br)cc3)c(=O)oc12", "Potency": "inconclusive: 3.55 µM [inhibitor, partial curve, poor fit]"},
      {"molecule": "COc1cccc(C(=O)NC(=S)Nc2ccccc2N2CCCC2)c1", "Potency": "inconclusive: 35.5 µM [inhibitor, single point]"},
      {"molecule": "Nc1ccc(S(=O)(=O)Nc2ccnn2-c2ccccc2)cc1", "Potency": "inconclusive: 0.0447 µM [inhibitor, full curve, poor fit]"},
      {"molecule": "CC(NC(=O)C1CCCN(S(=O)(=O)c2cccc3nonc23)C1)c1ccccc1", "note": "(stereo not given)", "Potency": "inactive"},
      {"molecule": "CCOCCCn1c(=N)c(C(=O)NCC2CCCO2)cc2c(=O)n3cccc(C)c3nc21", "note": "(stereo not given)", "Potency": "inconclusive: 1.41 µM [inhibitor, partial curve, poor fit]"},
      {"molecule": "O=C(Nc1ccccc1)c1ccc[nH]1", "Potency": "inactive"},
      {"molecule": "CC(C)(C)c1ccc(S(=O)(=O)N2CCN(C(=O)c3ccc4c(c3)C(=O)N(Cc3ccncc3)C4=O)CC2)cc1", "Potency": "inconclusive: 35.5 µM [activator, single point]"},
      {"molecule": "CCOC(=O)Cc1cc(=O)n2[nH]c(-c3ccccc3)cc2n1", "Potency": "inactive"},
      {"molecule": "O=C(O)CC(C(=O)O)n1nc(-c2ccccc2)cc1-c1ccccc1", "note": "(stereo not given)", "Potency": "inconclusive: 35.5 µM [activator, single point]"},
      {"molecule": "Cc1ccc(O)c(C(=O)c2cnn(C(=O)COc3ccc(Cl)cc3)c2)c1", "Potency": "inactive"},
      {"molecule": "CCCNC(=O)c1ccc2snnc2c1", "Potency": "inactive"},
      {"molecule": "COc1ccc(CC(=O)NC2CCN(CC(=O)N3CCCc4ccccc43)CC2)cc1OC", "Potency": "inconclusive: 0.651 µM [inhibitor, full curve]"},
      {"molecule": "CC(=O)c1c(C)n(-c2ccc(N(C)C)cc2)c2ccc(OCC(N)=O)cc12", "Potency": "inconclusive: 35.5 µM [inhibitor, single point]"},
      {"molecule": "Cc1ccc(-n2c(SCC(N)=O)nc3c(oc4ccccc43)c2=O)cc1C", "Potency": "inactive"},
      {"molecule": "COC(=O)CCCC(=O)Nc1c(F)c(F)c(F)c(F)c1F", "Potency": "inactive"},
      {"molecule": "Cc1c(C(=O)Nc2cccc([N+](=O)[O-])c2)sc2ncn(CC(=O)N3CCOCC3)c(=O)c12", "Potency": "inactive"},
      {"molecule": "Cc1c(C)c2ccc(O[C@@H]3O[C@H](CO)[C@@H](O)[C@H](O)[C@H]3O)c(C)c2oc1=O", "Potency": "inconclusive: 0.126 µM [activator, full curve, poor fit]"},
      {"molecule": "O=C(OCCN1CCCCC1)c1ccc(O)cc1", "Potency": "inactive"},
      {"molecule": "Cc1ccc(-c2cc(-c3ccc(C)cc3)[n+](C)o2)cc1", "Potency": "active: 3.55 µM"},
      {"molecule": "COc1ccccc1C1C(C#N)=C(N)N(c2cccnc2)C2=C1C(=O)CC(C)(C)C2", "note": "(stereo not given)", "Potency": "inactive"},
      {"molecule": "COc1ccc(NC(=O)CSCC(=O)Nc2ccc(C)c(S(=O)(=O)N3CCCCCC3)c2)cc1", "Potency": "inconclusive: 11.2 µM [inhibitor, partial curve]"},
      {"molecule": "CCN(CC)c1ccc(NC(=O)CSc2nnc3nc(C)cc(C)n23)cc1", "Potency": "inactive"},
      {"molecule": "O=C(Nc1ccc(C2CC2(Cl)Cl)cc1)c1cccc([N+](=O)[O-])c1", "note": "(stereo not given)", "Potency": "inconclusive: 35.5 µM [inhibitor, single point]"},
      {"molecule": "Cc1ccc(-c2nc(NCCN3CCOCC3)c3ccccc3n2)cc1", "Potency": "inconclusive: 9.2 µM [inhibitor, partial curve, poor fit]"},
      {"molecule": "Cc1cc2cc(C(c3nnnn3C3CCCC3)N(Cc3cccnc3)Cc3ccco3)c(=O)[nH]c2cc1C", "note": "(stereo not given)", "Potency": "active: 4.11 µM"},
      {"molecule": "Cc1cc[n+](C(C)C(=O)c2ccc(Cl)cc2)cc1", "note": "(stereo not given)", "Potency": "inconclusive: 11.2 µM [inhibitor, partial curve, poor fit]"},
      {"molecule": "Cc1ccc2nc(CCl)[n+]([O-])c(-c3ccccc3)c2c1", "Potency": "inactive"},
      {"molecule": "CCCNNC(=O)C(O)(c1cccc(C)c1)c1cccc(C)c1", "Potency": "inconclusive: 29.1 µM [activator, single point]"},
      {"molecule": "COc1ccc(NC(=O)c2cncc(Br)c2)cc1S(=O)(=O)N1CCCCC1", "Potency": "inconclusive: 8.91 µM [inhibitor, partial curve, poor fit]"},
      {"molecule": "Cc1nn(CC(=O)O)c(C)c1[N+](=O)[O-]", "Potency": "inconclusive: 35.5 µM [activator, single point]"},
      {"molecule": "CCOc1ccc(S(=O)(=O)Nc2ncn[nH]2)cc1", "Potency": "inactive"},
      {"molecule": "Cc1cc(/C=C(/C#N)C(=O)Nc2ccccc2)c(C)n1-c1cccnc1", "Potency": "inactive"},
      {"molecule": "CN(C)c1ccc(CNC2CC(C)(C)NC(C)(C)C2)cc1", "Potency": "inconclusive: 2 µM [inhibitor, partial curve, poor fit]"},
      {"molecule": "CCSc1nnc(NC(=O)CCc2ccc(OC)cc2)s1", "Potency": "inconclusive: 0.562 µM [activator, full curve, poor fit]"},
      {"molecule": "COc1ccccc1N1CCN(C(=O)c2cc(C(C)(C)C)oc2C)CC1", "Potency": "active: 10 µM"},
      {"molecule": "CC(=O)c1ccc(OCC(O)CN2CCN(c3ccc(F)cc3)CC2)cc1", "note": "(stereo not given)", "Potency": "inactive"},
      {"molecule": "O=C(O)c1cccc(-n2nc(-c3ccc(Cl)c([N+](=O)[O-])c3)c3ccccc3c2=O)c1", "Potency": "inconclusive: 6.31 µM [activator, single point]"},
      {"molecule": "CCCC(=O)Nc1cc(C(F)(F)F)ccc1N1CCOCC1", "Potency": "inconclusive: 0.251 µM [inhibitor, full curve, poor fit]"},
      {"molecule": "O=C(COC(=O)c1ccccc1Nc1ccccc1)Nc1ccccc1", "Potency": "inactive"},
      {"molecule": "NC(=O)c1cccnc1Nc1ccccc1Cl", "Potency": "inactive"},
      {"molecule": "OC(CNCc1ccc(F)cc1)(c1ccc(F)cc1)c1ccc(F)cc1", "Potency": "inconclusive: 25.9 µM [inhibitor, single point]"},
      {"molecule": "COCCCN1CN=C(NS(=O)(=O)c2ccc(C)cc2)NC1", "Potency": "inactive"}
    ]}
  ]
}
